Measurements reported in the supplement of paper PMC12067093, “Discovery and optimisation of a covalent ligand for TRIM25 and its application to targeted protein ubiquitination” (Chemical Science, 2025).
This is one part of the list.

Chains of the proteins cited; added tags and fusions are not shown. Lines headed by an entry give the natural chain unless they say otherwise; changes in a name come on top.
UniProt Q12769: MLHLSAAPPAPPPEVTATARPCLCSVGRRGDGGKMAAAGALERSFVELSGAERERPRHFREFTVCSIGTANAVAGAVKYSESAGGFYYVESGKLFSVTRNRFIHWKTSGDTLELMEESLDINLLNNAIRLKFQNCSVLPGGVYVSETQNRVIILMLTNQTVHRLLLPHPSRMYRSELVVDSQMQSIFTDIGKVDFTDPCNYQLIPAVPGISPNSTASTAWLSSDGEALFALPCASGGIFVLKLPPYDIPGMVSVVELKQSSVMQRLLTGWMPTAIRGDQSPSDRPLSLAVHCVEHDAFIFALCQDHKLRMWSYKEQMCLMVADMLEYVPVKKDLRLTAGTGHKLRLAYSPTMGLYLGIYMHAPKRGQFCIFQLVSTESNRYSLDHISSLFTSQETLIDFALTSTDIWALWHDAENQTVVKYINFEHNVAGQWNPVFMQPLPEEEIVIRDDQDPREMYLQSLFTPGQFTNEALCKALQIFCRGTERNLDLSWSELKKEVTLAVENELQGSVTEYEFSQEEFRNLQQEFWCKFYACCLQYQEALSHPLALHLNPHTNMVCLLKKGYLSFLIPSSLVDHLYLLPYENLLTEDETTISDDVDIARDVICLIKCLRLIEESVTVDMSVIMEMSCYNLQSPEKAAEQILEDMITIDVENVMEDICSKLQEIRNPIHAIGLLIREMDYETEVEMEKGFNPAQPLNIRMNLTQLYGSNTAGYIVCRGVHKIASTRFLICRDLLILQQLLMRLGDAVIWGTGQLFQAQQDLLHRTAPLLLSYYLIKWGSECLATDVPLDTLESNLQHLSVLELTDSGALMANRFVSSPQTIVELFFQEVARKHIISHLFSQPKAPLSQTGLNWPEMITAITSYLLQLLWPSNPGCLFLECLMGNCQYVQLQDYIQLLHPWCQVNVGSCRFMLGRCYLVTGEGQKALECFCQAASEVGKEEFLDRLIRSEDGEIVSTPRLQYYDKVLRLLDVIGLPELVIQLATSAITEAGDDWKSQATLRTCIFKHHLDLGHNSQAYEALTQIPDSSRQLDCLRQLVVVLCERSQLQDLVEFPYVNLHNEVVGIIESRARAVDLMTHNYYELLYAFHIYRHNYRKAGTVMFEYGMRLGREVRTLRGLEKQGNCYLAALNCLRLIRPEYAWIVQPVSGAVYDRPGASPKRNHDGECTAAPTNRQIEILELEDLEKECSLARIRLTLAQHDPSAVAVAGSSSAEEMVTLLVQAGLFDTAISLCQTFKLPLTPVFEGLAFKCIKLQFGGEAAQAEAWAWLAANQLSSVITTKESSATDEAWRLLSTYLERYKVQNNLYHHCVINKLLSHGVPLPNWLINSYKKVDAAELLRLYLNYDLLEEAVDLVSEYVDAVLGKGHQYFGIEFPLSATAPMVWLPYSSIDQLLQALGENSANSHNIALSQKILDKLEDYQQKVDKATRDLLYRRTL
UniProt O60502: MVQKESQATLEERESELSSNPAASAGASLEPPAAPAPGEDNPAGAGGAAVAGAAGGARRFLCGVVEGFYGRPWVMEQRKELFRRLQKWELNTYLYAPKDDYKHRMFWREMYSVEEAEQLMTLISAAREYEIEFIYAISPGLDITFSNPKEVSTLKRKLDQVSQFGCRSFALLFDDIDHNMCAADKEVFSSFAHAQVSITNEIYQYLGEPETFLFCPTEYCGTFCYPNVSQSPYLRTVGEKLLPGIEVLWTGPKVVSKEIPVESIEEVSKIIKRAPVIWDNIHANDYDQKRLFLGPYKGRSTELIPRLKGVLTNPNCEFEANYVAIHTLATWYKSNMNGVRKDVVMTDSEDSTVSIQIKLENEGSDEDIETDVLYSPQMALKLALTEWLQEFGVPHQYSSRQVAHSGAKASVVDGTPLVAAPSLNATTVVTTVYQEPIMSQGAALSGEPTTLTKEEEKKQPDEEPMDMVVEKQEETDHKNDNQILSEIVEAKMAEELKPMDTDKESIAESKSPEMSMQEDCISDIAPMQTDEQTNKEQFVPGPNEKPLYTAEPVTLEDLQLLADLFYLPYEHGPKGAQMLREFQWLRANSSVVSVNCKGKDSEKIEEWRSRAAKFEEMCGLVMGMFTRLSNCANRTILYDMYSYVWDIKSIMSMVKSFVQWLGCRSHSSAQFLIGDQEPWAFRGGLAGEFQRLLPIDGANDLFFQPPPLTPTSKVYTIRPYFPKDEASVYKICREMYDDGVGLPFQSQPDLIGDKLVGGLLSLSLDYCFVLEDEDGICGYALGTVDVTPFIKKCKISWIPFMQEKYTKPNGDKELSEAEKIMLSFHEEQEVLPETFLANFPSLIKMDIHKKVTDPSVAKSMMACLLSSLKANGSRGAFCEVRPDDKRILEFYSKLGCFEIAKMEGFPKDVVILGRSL
UniProt Q8TEM1: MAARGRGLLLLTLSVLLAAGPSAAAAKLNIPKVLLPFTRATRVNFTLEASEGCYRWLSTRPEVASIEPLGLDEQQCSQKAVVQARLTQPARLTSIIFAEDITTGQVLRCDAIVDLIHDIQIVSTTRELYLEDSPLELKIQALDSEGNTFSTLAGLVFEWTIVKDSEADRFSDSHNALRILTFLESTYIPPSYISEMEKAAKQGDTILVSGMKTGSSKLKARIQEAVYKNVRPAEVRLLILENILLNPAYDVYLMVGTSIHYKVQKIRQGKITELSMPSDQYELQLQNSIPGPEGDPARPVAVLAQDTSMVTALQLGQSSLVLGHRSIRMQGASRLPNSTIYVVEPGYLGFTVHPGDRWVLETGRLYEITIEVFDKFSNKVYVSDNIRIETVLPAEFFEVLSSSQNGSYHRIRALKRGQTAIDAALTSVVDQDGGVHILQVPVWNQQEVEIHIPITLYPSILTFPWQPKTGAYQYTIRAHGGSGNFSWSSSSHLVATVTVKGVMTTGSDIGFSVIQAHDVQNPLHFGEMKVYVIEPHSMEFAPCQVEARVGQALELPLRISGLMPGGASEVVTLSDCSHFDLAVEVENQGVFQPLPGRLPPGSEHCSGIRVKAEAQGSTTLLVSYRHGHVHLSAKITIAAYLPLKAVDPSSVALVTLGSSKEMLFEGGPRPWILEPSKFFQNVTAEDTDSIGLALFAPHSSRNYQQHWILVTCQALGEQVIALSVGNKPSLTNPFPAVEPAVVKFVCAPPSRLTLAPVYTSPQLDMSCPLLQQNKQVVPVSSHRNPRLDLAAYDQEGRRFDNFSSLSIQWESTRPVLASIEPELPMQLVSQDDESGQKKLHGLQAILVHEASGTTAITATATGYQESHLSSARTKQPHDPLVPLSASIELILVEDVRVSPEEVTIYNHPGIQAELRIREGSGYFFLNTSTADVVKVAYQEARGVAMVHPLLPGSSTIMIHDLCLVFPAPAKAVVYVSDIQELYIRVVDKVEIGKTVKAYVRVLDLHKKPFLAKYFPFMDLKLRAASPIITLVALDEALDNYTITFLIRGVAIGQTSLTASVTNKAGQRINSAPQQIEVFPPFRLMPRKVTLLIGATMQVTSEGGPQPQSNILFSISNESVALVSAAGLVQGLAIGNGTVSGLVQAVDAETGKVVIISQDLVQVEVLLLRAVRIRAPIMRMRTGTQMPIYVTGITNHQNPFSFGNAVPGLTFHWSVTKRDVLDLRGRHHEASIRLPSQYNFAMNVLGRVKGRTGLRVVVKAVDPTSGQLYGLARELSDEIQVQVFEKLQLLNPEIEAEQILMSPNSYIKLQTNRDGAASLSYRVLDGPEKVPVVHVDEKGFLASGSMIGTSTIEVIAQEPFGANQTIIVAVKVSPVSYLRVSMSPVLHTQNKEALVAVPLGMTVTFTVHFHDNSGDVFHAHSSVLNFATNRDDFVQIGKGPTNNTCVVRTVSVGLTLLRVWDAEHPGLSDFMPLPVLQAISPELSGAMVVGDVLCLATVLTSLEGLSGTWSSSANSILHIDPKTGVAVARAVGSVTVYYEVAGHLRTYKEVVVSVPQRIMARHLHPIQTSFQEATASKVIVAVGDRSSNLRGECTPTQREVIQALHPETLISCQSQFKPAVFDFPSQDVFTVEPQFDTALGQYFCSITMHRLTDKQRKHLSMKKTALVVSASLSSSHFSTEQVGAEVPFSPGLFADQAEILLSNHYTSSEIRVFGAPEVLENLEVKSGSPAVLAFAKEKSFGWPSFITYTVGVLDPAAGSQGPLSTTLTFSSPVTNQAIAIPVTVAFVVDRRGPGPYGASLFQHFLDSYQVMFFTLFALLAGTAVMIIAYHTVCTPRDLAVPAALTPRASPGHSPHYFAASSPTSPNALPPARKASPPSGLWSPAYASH
UniProt Q9BV86: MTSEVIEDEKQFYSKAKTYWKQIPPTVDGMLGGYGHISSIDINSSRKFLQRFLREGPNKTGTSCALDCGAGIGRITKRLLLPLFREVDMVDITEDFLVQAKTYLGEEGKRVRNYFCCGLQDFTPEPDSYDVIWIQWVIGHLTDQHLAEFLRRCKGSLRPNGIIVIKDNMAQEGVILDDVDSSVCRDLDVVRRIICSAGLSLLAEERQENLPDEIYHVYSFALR
UniProt Q99567: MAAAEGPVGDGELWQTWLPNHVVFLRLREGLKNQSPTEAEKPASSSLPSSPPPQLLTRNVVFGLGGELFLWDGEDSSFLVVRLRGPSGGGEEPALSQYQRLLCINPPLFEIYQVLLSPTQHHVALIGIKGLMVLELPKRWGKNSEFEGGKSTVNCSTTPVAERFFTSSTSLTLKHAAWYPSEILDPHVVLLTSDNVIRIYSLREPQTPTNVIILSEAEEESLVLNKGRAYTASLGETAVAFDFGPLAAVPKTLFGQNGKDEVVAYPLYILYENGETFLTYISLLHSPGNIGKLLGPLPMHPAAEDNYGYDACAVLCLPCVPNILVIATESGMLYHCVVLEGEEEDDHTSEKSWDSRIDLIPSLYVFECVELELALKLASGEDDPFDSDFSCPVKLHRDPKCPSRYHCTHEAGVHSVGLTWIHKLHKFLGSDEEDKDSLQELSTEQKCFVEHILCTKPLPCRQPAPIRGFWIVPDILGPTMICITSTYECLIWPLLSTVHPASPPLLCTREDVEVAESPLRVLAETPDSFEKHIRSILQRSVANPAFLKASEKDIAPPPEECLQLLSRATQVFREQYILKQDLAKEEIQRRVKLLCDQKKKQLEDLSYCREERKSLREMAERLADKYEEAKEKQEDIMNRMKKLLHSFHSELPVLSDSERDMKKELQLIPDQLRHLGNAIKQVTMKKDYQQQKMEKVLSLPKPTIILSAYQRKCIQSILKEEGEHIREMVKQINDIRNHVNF
UniProt Q02218: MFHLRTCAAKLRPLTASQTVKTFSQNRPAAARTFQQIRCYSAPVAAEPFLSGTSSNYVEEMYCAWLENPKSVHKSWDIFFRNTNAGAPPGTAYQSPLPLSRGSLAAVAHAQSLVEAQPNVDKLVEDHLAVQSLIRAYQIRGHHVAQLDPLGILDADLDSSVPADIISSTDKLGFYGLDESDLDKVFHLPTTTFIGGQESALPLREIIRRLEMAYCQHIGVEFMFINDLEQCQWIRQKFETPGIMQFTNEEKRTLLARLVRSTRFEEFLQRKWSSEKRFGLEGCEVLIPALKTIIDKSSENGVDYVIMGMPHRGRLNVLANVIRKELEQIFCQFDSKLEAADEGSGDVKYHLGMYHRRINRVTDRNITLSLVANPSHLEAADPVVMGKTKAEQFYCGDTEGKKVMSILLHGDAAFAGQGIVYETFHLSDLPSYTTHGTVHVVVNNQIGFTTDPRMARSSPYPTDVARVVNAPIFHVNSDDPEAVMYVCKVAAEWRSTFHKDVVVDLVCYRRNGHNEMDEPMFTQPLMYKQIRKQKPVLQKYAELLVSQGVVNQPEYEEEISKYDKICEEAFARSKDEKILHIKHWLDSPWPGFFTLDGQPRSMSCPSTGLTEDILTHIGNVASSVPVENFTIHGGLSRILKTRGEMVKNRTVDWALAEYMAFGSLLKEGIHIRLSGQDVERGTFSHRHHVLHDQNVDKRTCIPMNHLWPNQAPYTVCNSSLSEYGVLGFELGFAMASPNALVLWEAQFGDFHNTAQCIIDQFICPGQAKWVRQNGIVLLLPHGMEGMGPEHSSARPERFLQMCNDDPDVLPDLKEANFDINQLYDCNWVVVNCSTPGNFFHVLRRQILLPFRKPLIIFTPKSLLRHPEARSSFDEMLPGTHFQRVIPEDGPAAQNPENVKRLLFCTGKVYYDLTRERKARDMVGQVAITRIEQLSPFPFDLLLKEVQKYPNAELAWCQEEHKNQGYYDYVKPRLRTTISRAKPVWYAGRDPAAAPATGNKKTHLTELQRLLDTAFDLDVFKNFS
UniProt Q6ZVK8: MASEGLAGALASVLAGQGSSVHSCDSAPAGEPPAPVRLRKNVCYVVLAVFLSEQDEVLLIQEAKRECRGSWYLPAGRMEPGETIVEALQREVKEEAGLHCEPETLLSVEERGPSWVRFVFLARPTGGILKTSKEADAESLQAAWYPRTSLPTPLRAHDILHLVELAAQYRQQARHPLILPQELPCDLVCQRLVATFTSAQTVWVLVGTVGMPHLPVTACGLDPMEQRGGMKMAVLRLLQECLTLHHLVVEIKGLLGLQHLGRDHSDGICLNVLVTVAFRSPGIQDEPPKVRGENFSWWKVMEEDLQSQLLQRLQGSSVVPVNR

Compound: CC1Cc2ccccc2N1C(=O)C1CCCN(C1)C(=O)CCl (mixture of isomers) [TRIM25 ligand 11 (diastereomer mixture)]
Assay: probe-labelled cysteine peptide fold change vs DMSO (competition) (log2 fold change); higher = less target engagement (more negative = stronger competition)
Conditions: THP-1, incubation time: 4 h
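Note: competitive chemoproteomic profiling in live THP-1 cells with an iodoacetamide desthiobiotin (IA-DTB) probe, comparing probe-labelled peptide intensities in compound-treated cells against DMSO-treated controls.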

| Target | probe-labelled cysteine peptide fold change (10 µM) | probe-labelled cysteine peptide fold change (50 µM) |
| --- | --- | --- |
| NUP160_Q12769_1166_RNHDGECTAAPTNR (UniProt Q12769) | 0.139 | 0.0275 |
| OGA_O60502_181_SFALLFDDIDHNMCAADK (UniProt O60502) | -0.0884 | 0.019 |
| NUP210_Q8TEM1_543_VYVIEPHSMEFAPCQVEAR (UniProt Q8TEM1) | -0.131 | -0.0586 |
| OCRL_Q01968_611_LNDSQYCK (UniProt Q01968) | 0.0644 | 0.0168 |
| OCIAD1_Q9NX40_38_VFAECNDESFWFR (UniProt Q9NX40) | 0.123 | 0.262 |
| NTMT1_Q9BV86_64_TGTSCALDCGAGIGR (UniProt Q9BV86) | 0.137 | 0.121 |
| NUP88_Q99567_407_YHCTHEAGVHSVGLTWIHK (UniProt Q99567) | 0.116 | -0.154 |
| NUP37_Q8NFH4_311_TLPLCVIGGDHK (UniProt Q8NFH4) | 0.0221 | 0.0514 |
| NTMT1_Q9BV86_184_DNMAQEGVILDDVDSSVCR (UniProt Q9BV86) | -0.169 | 0.0162 |
| OBSL1_O75147_362_EHGIAVLECK (UniProt O75147) | -0.0165 | 0.0181 |
| OGDH_Q02218_487_VVNAPIFHVNSDDPEAVMYVCK (UniProt Q02218) | -0.106 | -0.158 |
| NUP50_Q9UKX7_333_PLEGQAEGDSGECK (UniProt Q9UKX7) | 0.0058 | 0.166 |
| NUP153_P49790_871+874_CLACESAKPGTK (UniProt P49790) | -0.0172 | 0.0935 |
| NUDT16_Q96DE0_23_HACHALLYAPDPGMLFGR (UniProt Q96DE0) | 0.132 | 0.285 |
| NUDT18_Q6ZVK8_241_LLQECLTLHHLVVEIK (UniProt Q6ZVK8) | -0.0478 | 0.071 |
| NUTF2_P61970_80_IQHSITAQDHQPTPDSCIISMVVGQLK (UniProt P61970) | 0.00644 | -0.0494 |
| NUP93_Q8N1F7_328_CGDLLAASQVVNR (UniProt Q8N1F7) | 0.0268 | 0.221 |
| NUDT18_Q6ZVK8_100_EEAGLHCEPETLLSVEER (UniProt Q6ZVK8) | 0.0358 | -0.0319 |
| NUP205_Q92621_1662_CQDVSAGSLQELALLTGIISK (UniProt Q92621) | 0.0616 | -0.0523 |

| Target | probe-labelled cysteine peptide fold change (10 µM) | probe-labelled cysteine peptide fold change (50 µM) |
| --- | --- | --- |
| NUP43_Q8NFH3_222_QQGNEPSQILSLTGDRVPLHCVDR (UniProt Q8NFH3) | 0.0644 | -0.0453 |
| NUP188_Q5SRE5_1283_DGVCVLGLHLAK (UniProt Q5SRE5) | -0.0712 | -0.224 |
| NUP98_P52948_1347_ISEACSLAQQSGDHR (UniProt P52948) | 0.227 | 0.166 |
| OGDH_Q02218_507_DVVVDLVCYR (UniProt Q02218) | 0.0554 | 0.154 |
| NUP155_O75694_104_RVPLPPELVEQFGHMQCNCMMGVFPPISR (UniProt O75694) | -0.00238 | 0.0117 |
| NUDT3_O95989_68_EVCEEAGVK (UniProt O95989) | -0.0889 | -0.00724 |
| NUDT16L1_Q9BRJ7_171_CQLLFALK (UniProt Q9BRJ7) | -0.0516 | 0.122 |
| NUP155_O75694_356_SVFKPIVQIAVIENSESLDCQLLAVTHAGVR (UniProt O75694) | 0.122 | 0.226 |
| NUMB_P49757_611_HTEVPTGTCPVDPFEAQWAALENK (UniProt P49757) | -0.101 | -0.273 |
| NUP160_Q12769_473_EMYLQSLFTPGQFTNEALCK (UniProt Q12769) | 0.0737 | -0.00751 |
| NUDT21_O43809_144_QDGVLQDWVIDDCIGNWWRPNFEPPQYPYIPAHITKPK (UniProt O43809) | 0.0645 | 0.0245 |
| NVL_O15381_785_CDCYTGADLSALVR (UniProt O15381) | -0.0967 | -0.0832 |
| NUP153_P49790_148_SHLNFSMLESPALHCQPSTSSAFPIGSSGFSLVK (UniProt P49790) | 0.0821 | -0.117 |
| NUP85_Q9BW27_51_SEMVPSCPFIYIIR (UniProt Q9BW27) | -0.141 | -0.189 |
| NUP160_Q12769_1124+1131_QGNCYLAALNCLR (UniProt Q12769) | -0.0631 | 0.114 |
| OGA_O60502_166_RKLDQVSQFGCR (UniProt O60502) | -0.0194 | -0.0376 |
| NUP88_Q99567_447_CFVEHILCTK (UniProt Q99567) | 0.0557 | 0.0669 |
| NUDT2_P50583_143_AALQEGHQFLCSIEA (UniProt P50583) | -0.0972 | 0.104 |
